Measurements as given in publication PMC5428264, “Dentin sialoprotein facilitates dental mesenchymal cell differentiation and dentin formation” (Scientific Reports, 2017).
These are yes or no findings as the source states them, for the method shown. Binding seen in cells or lysates may run through a third protein. Some entries that bind do so weakly or less than the wild type. For some of these results: Where a sequence is shown, tags or fusion partners need not be part of it.

Amino acid sequences for entries named in this document (tags omitted).
UniProt P34152: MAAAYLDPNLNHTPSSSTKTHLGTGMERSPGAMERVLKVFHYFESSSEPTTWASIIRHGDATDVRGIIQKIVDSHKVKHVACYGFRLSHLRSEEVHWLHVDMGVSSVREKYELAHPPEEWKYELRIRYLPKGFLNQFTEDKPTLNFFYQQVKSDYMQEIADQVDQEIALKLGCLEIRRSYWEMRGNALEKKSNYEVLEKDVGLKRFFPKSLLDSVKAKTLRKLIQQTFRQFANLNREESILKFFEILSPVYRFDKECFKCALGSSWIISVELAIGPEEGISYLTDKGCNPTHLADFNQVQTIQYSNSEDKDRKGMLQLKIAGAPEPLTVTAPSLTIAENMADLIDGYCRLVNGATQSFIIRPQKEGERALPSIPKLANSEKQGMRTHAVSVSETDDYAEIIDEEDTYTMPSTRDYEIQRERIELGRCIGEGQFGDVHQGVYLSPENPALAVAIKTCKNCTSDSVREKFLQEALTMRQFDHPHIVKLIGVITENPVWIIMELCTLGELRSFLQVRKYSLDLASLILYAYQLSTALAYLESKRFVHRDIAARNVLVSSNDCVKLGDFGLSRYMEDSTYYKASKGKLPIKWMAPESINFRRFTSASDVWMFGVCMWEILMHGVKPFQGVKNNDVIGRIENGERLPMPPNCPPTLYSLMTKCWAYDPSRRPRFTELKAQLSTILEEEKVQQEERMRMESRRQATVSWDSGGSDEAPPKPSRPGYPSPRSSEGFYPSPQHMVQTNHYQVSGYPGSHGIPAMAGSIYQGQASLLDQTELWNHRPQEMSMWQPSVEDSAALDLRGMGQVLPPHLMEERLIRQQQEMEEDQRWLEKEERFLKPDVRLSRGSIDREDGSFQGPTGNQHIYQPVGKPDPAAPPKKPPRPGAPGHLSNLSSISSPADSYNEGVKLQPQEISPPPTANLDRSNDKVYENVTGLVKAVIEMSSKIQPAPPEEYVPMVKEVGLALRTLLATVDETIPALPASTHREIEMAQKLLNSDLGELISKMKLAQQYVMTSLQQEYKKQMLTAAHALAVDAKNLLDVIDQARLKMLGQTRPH

T1: Myc-Ocln (mouse) (UniProt Q61146)
T1 sequence: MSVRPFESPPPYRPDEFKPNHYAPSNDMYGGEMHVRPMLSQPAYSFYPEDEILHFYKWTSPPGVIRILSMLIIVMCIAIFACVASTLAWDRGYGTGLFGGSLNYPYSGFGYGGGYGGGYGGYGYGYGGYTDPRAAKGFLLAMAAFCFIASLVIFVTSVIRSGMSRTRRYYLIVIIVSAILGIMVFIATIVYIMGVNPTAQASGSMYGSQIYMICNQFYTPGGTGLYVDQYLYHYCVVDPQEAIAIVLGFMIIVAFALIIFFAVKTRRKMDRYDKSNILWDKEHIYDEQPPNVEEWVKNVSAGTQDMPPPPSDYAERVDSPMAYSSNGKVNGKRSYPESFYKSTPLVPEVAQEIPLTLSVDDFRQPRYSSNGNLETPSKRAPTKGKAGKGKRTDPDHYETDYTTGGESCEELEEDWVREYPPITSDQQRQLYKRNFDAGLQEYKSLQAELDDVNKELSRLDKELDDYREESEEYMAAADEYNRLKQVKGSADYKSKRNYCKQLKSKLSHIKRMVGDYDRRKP

T2: GST-DSP fusion protein (recombinant dentin sialoprotein 1–458) (mouse) (UniProt P97399)
T2 sequence: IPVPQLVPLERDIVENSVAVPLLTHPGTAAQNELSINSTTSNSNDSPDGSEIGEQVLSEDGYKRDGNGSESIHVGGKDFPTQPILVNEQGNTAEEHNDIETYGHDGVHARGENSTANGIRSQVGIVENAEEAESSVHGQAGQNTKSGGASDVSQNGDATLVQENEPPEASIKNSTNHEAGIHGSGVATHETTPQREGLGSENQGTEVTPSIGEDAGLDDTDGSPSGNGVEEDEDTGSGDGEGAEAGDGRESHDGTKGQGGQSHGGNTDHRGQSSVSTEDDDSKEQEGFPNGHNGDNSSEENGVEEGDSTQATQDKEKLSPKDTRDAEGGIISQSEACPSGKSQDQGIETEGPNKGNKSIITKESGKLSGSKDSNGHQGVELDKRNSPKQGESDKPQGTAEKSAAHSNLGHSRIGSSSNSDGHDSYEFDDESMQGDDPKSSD

T3: OclnL2 (occludin extracellular loop 2, aa 194–241) expressed in HEK-293 cells (mouse) (UniProt Q61146)
T3 sequence: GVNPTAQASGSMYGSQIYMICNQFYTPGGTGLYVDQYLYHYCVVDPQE

B1: occludin (Ocln) (receptor, UniProt Q61146 1-521)
chain: MSVRPFESPPPYRPDEFKPNHYAPSNDMYGGEMHVRPMLSQPAYSFYPEDEILHFYKWTSPPGVIRILSMLIIVMCIAIFACVASTLAWDRGYGTGLFGGSLNYPYSGFGYGGGYGGGYGGYGYGYGGYTDPRAAKGFLLAMAAFCFIASLVIFVTSVIRSGMSRTRRYYLIVIIVSAILGIMVFIATIVYIMGVNPTAQASGSMYGSQIYMICNQFYTPGGTGLYVDQYLYHYCVVDPQEAIAIVLGFMIIVAFALIIFFAVKTRRKMDRYDKSNILWDKEHIYDEQPPNVEEWVKNVSAGTQDMPPPPSDYAERVDSPMAYSSNGKVNGKRSYPESFYKSTPLVPEVAQEIPLTLSVDDFRQPRYSSNGNLETPSKRAPTKGKAGKGKRTDPDHYETDYTTGGESCEELEEDWVREYPPITSDQQRQLYKRNFDAGLQEYKSLQAELDDVNKELSRLDKELDDYREESEEYMAAADEYNRLKQVKGSADYKSKRNYCKQLKSKLSHIKRMVGDYDRRKP
B2: integrin β6 (receptor, UniProt Q9Z0T9 22-787)
chain: GCAWGGAESCSDCLLTGPHCAWCSQENFTHLSGAGERCDTPANLLAKGCQLPFIENPVSRIEVLQNKPLSVGRQKNSSDIVQIAPQSLVLKLRPGREQTLQVQVRQTEDYPVDLYYLMDLSASMDDDLNTIKELGSRLAKEMSKLTSNFRLGFGSFVEKPVSPFMKTTPEEITNPCSSIPYFCLPTFGFKHILPLTDDAERFNEIVRKQKISANIDTPEGGFDAIMQAAVCKEKIGWRNDSLHLLVFVSDADSHFGMDSKLAGIVIPNDGLCHLDHRNEYSMSTVLEYPTIGQLIDKLVQNNVLLIFAVTQEQVHLYENYAKLIPGATVGLLQKDSGNILQLIISAYEELRSEVELEVLGDTEGLNLSFTALCNNGVLFPHQKKCSHMKVGDTASFNVTVSVSNCEKRSRNLIIKPVGLGDTLEILVSAECDCDCQREIETNSSKCHNGNGSFQCGVCTCNPGHMGPHCECGEDMVSTDSCKESPGHPSCSGRGDCYCGQCICHLSPYGSIYGPYCQCDNFSCLRHKGLLCGDNGDCDCGECVCRDGWTGEYCNCTTNRDSCTSEDGVLCSGRGDCVCGKCVCRNPGASGPTCERCPTCGDPCNSKRSCIECYLSADGQAQEECADKCKAIGATISEEDFSKDTSVSCSLQGENECLITFLITTDNEGKTIIHNINEKDCPKPPNIPMIMLGVSLAILLIGVVLLCIWKLLVSFHDRKEVAKFEAERSKAKWQTGTNPLYRGSTSTFKNVTYKHREKHKAGLSSDG
B3: DSPf5 (DSP aa 363–458) expressed in HEK-293 cells (domain or fragment, UniProt P97399 363-458)
chain: GIETEGPNKGNKSIITKESGKLSGSKDSNGHQGVELDKRNSPKQGESDKPQGTAEKSAAHSNLGHSRIGSSSNSDGHDSYEFDDESMQGDDPKSSD

Legend:
[1] = target: T1, Myc-Ocln (mouse); assay: co-IP; HEK-293 cells cotransfected with Myc-Ocln and GFP-FAK, 48 h; precipitated with Myc or GFP antibody; blots with Ocln and FAK antibodies
[2] = target: T2, GST-DSP fusion protein (recombinant dentin sialoprotein 1–458) (mouse); assay: pull-down; GST-DSP fusion protein incubated with 1 ml lysate of mouse odontoblast-like cells (MO-6G3) in 50 mM Tris-HCl pH 7.4, 150 mM NaCl, Triton X100 overnight at 4 °C; glutathione agarose beads; eluted with reduced glutathione; Western blots with antibodies to 110 candidates; only the target purified
[3] = target: T3, OclnL2 (occludin extracellular loop 2, aa 194–241) expressed in HEK-293 cells (mouse); assay: co-IP; HEK-293 cells transfected with Myc-Ocln and Flag-DSP or Myc-DSP and Flag-Ocln (and fragments), 48 h; lysis in 50 mM Tris-HCl pH 7.4, 150 mM NaCl, 1 mM EDTA, 1% Triton X-100; precipitated with Myc antibody; blots with anti-Myc, anti-DSP or anti-Ocln

Molecule	binding [2]	further results
GFP-FAK (focal adhesion kinase) (from UniProt P34152 1-1052) (enzyme)	–	binding [1]: binds
B1	binds	–
B2	binds	–
B3	–	binding [3]: binds
